Part of at least one peptide drawing is inferred or uncertain, most often the ends. Positions of bridges follow the written chain, without caps; N, C: chain ends. Non-standard residues stand in square brackets, D forms with d. Residues, ends and D or L forms follow the SMILES beside them. Pen = CC(C)(S)[C@H](N)C(=O)O; Mpa = O=C(O)CCS
Biological target: T1, vasopressin receptor sites (Sus scrofa, UniProt P32307)
T1 construct: from tissue; renal medulla by own knowledge of the cited protocol
Test: Binding activity in hog tissue (KB), protocol of Stassen et al.
Settings: compound A versus compound B (6-Cys analogue), from the table data
From the text: The binding activity in hog and rat liver tissue, as well as the antagonistic activity in the hydropenic rat, of the compounds according to this invention is illustrated by the following results which were obtained using testing protocols which are described in the literature [F. Stassen, J. Pharmacology and Experimental Therapeutics, 223 50 (1982)]: […]

By UniProt entry, the sequences of proteins in these tests, tags left out.
UniProt P32307, whole entry: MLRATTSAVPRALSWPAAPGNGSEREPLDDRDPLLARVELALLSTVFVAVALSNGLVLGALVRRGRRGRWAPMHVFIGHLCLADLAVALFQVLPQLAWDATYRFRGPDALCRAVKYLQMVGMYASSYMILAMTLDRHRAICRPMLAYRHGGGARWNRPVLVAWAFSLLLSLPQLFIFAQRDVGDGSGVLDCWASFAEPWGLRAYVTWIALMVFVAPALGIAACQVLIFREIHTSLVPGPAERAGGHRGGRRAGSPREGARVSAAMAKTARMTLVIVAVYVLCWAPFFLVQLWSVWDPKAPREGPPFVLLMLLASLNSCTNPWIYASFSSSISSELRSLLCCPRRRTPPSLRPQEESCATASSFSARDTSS

With CCOc1ccc(C[C@H]2NC(=O)CCSSC(C)(C)[C@@H](C(=O)N3CCC[C@H]3C(=O)N[C@@H](CCCNC(=N)N)C(=O)NCC(N)=O)NC(=O)[C@H](CC(N)=O)NC(=O)[C@H](C(C)C)NC(=O)[C@H](Cc3ccccc3)NC2=O)cc1 [Compound A, Mpr--D-Tyr(Et)--Phe--Val--Asn--Pen--Pro--Arg--Gly(NH2)] ([Mpa][dY](Et)FVN[Pen]PRG-NH2; disulfide 1-6) the “times more active than compound B” value was “about 50 times”.
